# Experimental data published in PMC7534897 (Bioorganic & Medicinal Chemistry Letters, 2020).
# Like-named read-outs stand apart in the source and are kept apart here.
# Test system: Enterovirus 71 (Tainin/4643/98 strain)
# Test: Inhibition of EV-A71 replication in Vero 76 cells
# Assay type: cell-based
# Settings: Enterovirus A
smiles,measurement,setting,value
OC[C@@]12C[C@@H]1[C@@H](n1cnc3c(NC(C4CC4)C4CC4)nc(Cl)nc31)[C@H](O)[C@@H]2O [Compound 16],EC50,"Vero 76, read-out: Neutral red EC50",3.2 µM
same,EC50,"Vero 76, read-out: Visual EC50",10 µM
